Source: the supplement of paper PMC12823440, “Inhibitors supercharge kinase turnover through native proteolytic circuits” (Nature, 2025)
The other results are listed elsewhere or left out. The calls rarely recur for the same compound in another form.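 In K562 cells expressing nanoluciferase-fused kinases, luminescence was recorded at 4 h intervals between 2 and 18 h, normalized as percent of control with DMSO at 100% and a positive control at 0%. A significant (2 sigma) signal drop marks a time point as decreased. The authors' rule for a hit is not shown and takes in more than the number of time points.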

The chains behind the UniProt entries cited, without tags or fusion partners. Where a name states a change or a piece, a line headed by the entry shows the natural chain unless it says otherwise.
UniProt P28482, whole entry: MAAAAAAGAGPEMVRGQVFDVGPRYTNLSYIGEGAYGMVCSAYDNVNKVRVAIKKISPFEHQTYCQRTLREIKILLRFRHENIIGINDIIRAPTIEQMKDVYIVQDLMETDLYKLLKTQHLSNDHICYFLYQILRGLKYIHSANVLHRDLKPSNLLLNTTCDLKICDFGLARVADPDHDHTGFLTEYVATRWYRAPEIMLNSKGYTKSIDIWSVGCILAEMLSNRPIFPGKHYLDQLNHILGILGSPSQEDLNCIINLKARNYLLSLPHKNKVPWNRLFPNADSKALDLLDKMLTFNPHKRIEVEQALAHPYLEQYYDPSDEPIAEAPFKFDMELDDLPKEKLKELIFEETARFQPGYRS
UniProt P31152, whole entry: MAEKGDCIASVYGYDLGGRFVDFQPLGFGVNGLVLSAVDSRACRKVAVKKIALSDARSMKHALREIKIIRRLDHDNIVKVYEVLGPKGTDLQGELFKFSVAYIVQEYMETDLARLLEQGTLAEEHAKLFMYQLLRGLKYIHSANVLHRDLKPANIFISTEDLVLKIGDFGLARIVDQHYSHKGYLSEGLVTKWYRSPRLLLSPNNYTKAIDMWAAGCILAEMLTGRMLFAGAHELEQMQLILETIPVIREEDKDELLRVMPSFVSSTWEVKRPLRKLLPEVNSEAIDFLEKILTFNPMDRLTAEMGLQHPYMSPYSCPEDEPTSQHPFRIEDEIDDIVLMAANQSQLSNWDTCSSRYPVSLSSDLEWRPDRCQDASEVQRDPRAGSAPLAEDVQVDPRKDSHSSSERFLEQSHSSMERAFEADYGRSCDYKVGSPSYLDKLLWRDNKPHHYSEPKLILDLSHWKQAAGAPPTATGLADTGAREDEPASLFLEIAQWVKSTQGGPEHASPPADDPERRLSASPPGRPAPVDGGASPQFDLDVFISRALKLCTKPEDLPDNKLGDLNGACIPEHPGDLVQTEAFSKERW
UniProt Q9BUB5: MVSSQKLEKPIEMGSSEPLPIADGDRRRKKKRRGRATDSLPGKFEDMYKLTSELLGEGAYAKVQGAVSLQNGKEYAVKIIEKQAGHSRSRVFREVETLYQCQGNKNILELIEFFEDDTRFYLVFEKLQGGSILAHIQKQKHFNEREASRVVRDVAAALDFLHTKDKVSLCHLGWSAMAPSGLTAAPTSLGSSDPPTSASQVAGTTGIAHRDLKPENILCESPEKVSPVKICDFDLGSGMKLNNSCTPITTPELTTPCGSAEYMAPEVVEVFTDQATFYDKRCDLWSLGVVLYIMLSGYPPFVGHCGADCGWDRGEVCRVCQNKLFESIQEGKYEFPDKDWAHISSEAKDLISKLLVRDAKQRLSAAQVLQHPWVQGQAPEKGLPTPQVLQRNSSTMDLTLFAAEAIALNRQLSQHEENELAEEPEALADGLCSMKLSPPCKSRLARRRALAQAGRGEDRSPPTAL
UniProt Q16620, whole entry, looked up: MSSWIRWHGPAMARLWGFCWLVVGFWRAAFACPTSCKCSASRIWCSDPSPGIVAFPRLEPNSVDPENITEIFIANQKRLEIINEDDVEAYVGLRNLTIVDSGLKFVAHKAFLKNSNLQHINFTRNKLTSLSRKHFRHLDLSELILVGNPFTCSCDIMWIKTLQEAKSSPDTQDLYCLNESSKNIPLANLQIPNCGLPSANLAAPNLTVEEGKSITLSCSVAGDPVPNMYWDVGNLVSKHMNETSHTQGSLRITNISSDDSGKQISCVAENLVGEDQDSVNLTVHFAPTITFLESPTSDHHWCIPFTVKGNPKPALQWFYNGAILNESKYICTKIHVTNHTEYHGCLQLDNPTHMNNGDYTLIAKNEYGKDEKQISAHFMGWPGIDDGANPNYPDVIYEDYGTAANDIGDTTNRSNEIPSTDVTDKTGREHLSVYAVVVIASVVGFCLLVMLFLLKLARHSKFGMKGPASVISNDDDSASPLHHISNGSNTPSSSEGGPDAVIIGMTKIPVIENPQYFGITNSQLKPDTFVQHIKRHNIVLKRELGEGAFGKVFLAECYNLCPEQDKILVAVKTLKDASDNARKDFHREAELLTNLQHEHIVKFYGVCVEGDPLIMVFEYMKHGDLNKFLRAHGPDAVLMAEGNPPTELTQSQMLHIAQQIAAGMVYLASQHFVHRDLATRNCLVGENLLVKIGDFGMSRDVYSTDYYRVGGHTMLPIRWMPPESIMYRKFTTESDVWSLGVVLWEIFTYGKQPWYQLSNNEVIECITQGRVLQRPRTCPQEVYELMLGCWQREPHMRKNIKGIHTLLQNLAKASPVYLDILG
UniProt Q16288, whole entry, looked up: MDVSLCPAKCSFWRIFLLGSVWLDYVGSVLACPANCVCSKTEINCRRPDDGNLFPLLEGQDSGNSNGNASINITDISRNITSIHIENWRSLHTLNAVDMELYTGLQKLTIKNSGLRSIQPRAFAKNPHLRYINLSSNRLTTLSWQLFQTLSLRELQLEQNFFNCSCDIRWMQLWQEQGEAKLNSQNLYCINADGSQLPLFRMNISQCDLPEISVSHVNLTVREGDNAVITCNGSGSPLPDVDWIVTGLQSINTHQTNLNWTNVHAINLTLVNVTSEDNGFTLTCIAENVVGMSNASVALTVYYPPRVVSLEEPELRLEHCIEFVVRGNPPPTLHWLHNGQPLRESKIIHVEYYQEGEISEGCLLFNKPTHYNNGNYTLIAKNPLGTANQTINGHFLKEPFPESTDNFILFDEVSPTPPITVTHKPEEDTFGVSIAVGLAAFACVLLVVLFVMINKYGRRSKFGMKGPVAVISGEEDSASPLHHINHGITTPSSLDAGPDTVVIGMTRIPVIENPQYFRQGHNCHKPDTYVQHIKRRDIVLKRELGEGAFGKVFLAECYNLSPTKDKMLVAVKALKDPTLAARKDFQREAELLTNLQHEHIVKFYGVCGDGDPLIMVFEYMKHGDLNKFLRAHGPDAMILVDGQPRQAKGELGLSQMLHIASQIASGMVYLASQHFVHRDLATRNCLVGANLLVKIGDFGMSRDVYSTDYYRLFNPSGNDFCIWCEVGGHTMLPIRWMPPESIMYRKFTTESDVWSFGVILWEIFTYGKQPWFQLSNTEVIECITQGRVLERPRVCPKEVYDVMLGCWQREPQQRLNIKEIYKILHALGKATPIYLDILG
UniProt Q96KB5: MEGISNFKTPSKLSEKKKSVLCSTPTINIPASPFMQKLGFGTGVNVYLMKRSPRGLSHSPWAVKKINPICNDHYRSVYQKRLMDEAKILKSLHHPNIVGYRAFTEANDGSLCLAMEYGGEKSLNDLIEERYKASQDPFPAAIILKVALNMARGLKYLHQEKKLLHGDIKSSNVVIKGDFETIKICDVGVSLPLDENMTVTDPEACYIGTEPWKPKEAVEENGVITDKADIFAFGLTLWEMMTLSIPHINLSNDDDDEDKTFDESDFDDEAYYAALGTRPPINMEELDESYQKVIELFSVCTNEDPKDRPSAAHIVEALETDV
UniProt P09619, whole entry: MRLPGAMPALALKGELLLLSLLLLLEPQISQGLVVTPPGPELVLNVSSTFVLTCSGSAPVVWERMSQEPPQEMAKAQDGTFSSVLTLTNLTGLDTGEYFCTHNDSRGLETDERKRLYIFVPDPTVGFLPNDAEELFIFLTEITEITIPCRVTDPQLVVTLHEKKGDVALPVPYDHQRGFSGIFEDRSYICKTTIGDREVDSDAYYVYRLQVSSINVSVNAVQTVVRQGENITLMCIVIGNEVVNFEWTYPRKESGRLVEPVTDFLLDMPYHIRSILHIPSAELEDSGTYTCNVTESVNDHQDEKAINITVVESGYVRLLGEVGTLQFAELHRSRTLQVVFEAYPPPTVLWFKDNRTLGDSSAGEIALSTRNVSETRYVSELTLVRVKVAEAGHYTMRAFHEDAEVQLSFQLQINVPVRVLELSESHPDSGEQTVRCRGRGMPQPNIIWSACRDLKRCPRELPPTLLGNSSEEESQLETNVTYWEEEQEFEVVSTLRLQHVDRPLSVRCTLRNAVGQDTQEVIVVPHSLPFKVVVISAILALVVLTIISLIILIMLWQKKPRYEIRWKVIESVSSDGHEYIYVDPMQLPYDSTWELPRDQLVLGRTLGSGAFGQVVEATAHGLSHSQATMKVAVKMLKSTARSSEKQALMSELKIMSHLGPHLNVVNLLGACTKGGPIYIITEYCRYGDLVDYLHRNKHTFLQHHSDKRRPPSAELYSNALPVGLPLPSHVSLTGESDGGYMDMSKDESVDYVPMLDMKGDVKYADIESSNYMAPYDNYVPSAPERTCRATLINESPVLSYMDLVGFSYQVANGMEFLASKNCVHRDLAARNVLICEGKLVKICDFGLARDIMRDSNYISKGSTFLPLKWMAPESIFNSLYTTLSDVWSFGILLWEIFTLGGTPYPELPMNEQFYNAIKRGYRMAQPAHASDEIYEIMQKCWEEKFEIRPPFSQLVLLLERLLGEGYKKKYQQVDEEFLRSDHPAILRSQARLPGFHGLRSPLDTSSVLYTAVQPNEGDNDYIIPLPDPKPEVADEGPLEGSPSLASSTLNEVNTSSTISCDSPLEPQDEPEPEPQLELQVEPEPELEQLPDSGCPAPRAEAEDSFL
UniProt Q9UBF8: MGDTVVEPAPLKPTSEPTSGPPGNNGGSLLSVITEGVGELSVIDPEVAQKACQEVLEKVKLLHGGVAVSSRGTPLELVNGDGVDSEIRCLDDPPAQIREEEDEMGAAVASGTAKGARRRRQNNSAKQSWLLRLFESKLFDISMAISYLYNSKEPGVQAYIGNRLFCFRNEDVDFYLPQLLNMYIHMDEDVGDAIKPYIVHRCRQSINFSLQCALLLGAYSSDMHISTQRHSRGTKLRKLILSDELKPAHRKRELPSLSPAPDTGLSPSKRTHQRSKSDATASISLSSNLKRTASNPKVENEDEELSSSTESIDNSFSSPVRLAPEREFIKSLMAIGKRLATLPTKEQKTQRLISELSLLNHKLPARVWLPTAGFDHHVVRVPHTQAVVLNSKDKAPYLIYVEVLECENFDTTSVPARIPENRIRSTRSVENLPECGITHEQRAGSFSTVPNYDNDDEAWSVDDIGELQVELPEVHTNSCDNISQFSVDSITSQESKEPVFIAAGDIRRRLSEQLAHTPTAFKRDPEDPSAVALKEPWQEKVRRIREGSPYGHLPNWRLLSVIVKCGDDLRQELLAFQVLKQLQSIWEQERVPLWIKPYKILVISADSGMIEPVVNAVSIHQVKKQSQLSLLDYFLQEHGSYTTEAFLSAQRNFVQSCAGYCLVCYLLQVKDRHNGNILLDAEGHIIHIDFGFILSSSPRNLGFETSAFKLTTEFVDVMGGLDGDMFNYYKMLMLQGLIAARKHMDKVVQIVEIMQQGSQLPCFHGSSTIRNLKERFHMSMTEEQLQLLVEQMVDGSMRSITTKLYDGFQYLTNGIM
UniProt P53350, whole entry: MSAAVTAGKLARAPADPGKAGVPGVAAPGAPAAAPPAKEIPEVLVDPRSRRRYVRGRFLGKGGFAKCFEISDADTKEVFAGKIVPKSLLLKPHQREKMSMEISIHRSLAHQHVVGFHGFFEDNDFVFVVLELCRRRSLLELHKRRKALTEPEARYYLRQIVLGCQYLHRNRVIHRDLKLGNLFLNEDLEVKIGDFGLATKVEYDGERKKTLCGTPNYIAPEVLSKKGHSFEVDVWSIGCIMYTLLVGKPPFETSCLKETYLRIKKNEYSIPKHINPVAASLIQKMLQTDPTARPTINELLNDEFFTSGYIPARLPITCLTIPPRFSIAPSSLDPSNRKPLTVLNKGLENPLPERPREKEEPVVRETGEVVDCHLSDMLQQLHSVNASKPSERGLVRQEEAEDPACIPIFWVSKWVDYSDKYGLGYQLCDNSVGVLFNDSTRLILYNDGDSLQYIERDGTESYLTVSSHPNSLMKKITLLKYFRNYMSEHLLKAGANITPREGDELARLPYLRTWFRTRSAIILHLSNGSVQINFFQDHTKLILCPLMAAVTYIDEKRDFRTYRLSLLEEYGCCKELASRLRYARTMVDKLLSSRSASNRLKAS
UniProt Q13131: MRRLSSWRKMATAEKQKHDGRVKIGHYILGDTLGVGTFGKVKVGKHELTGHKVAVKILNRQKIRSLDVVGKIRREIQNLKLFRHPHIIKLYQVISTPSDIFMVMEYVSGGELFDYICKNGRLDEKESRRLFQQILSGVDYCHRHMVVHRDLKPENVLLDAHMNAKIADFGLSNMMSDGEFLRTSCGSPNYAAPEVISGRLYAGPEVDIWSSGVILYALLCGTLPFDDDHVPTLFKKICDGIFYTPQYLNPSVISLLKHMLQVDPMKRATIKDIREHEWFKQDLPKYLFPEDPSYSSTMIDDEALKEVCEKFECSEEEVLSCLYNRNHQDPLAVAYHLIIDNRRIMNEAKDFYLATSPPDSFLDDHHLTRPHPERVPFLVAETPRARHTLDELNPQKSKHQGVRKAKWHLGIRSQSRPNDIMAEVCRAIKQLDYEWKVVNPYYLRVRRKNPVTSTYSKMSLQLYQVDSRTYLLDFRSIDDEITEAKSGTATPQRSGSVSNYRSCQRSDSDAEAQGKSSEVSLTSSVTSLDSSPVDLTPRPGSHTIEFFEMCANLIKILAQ

Columns and labels:
Assay in all cases: kinase-Nluc reporter destabilization hit call (1 = scored as downregulated) (binary); higher = compound decreases kinase abundance
Settings in all cases: K562; 2-18 h
[1] = biological target: MAPK1 (UniProt P28482)
[2] = biological target: MAPK4 (UniProt P31152)
[3] = biological target: MAPKAPK2 (UniProt P49137)
[4] = biological target: MKNK1 (UniProt Q9BUB5)
[5] = biological target: NTRK2 (UniProt Q16620)
[6] = biological target: NTRK3 (UniProt Q16288)
[7] = biological target: PAK4 (UniProt O96013)
[8] = biological target: PBK (UniProt Q96KB5)
[9] = biological target: PDGFRB (UniProt P09619)
[10] = biological target: PDK1 (UniProt Q15118)
[11] = biological target: PDPK1 (UniProt O15530)
[12] = biological target: PIK4CA (UniProt P42356)
[13] = biological target: PIK4CB (UniProt Q9UBF8)
[14] = biological target: PLK1 (UniProt P53350)
[15] = biological target: PRKAA1 (UniProt Q13131)
[16] = biological target: PRKCA (UniProt P17252)
[17] = biological target: PTK2 (UniProt Q05397)
[18] = biological target: PTK2B (UniProt Q14289)
[19] = biological target: RAF1 (UniProt P04049)
[20] = biological target: RAF1_S257L (clone: RAF1_mut) (UniProt P04049)

Measured: kinase-Nluc reporter destabilization hit call

O=C([O-])c1ccccc1O.[Na+] [Sodium Salicylate] (10 µM)
inactive: [1] 0 | [2] 0 | [3] 0 | [4] 0 | [5] 0 | [6] 0 | [7] 0 | [8] 0 | [9] 0 | [10] 0 | [11] 0 | [12] 0 | [13] 0 | [14] 0 | [15] 0 | [16] 0 | [17] 0 | [18] 0 | [19] 0 | [20] 0

CC(C)(C#N)c1ccc(N2C(=O)OCc3cnc4ccc(-c5cnc6ccccc6c5)cc4c32)cc1 (2.5 µM)
inactive: [1] 0 | [2] 0 | [3] 0 | [4] 0 | [5] 0 | [6] 0 | [7] 0 | [8] 0 | [9] 0 | [10] 0 | [11] 0 | [12] 0 | [13] 0 | [14] 0 | [15] 0 | [16] 0 | [17] 0 | [18] 0 | [19] 0 | [20] 0

CNC(=O)c1ccccc1Nc1nc(Nc2ccc(N3CCOCC3)cc2OC)ncc1Cl (2.5 µM)
inactive: [1] 0 | [2] 0 | [3] 0 | [4] 0 | [5] 0 | [6] 0 | [7] 0 | [8] 0 | [9] 0 | [10] 0 | [11] 0 | [12] 0 | [13] 0 | [14] 0 | [15] 0 | [16] 0 | [17] 0 | [18] 0 | [19] 0 | [20] 0

CN(C)CCOc1ccc(-c2nc(-c3ccncc3)c(-c3ccc4c(c3)CC/C4=N\O)[nH]2)cc1 (10 µM)
inactive: [1] 0 | [2] 0 | [3] 0 | [4] 0 | [5] 0 | [6] 0 | [7] 0 | [8] 0 | [9] 0 | [10] 0 | [11] 0 | [12] 0 | [13] 0 | [14] 0 | [15] 0 | [16] 0 | [17] 0 | [18] 0 | [19] 0 | [20] 0

CCCCNc1ncc(-c2ccc(CN3CCOCC3)cn2)c(NC2CCC(O)CC2)n1 (stereo not given) (10 µM)
inactive: [1] 0 | [2] 0 | [3] 0 | [4] 0 | [5] 0 | [6] 0 | [7] 0 | [8] 0 | [9] 0 | [10] 0 | [11] 0 | [12] 0 | [13] 0 | [14] 0 | [15] 0 | [16] 0 | [17] 0 | [18] 0 | [19] 0 | [20] 0

An excerpt from above in order of SMILES length, largest number first:
CN(C)CCOc1ccc(-c2nc(-c3ccncc3)c(-c3ccc4c(c3)CC/C4=N\O)[nH]2)cc1 (10 µM)
inactive: [1] 0 | [2] 0 | [3] 0 | [4] 0 | [5] 0 | [6] 0 | [7] 0 | [8] 0 | [9] 0 | [10] 0 | [11] 0 | [12] 0 | [13] 0 | [14] 0 | [15] 0 | [16] 0 | [17] 0 | [18] 0 | [19] 0 | [20] 0

CC(C)(C#N)c1ccc(N2C(=O)OCc3cnc4ccc(-c5cnc6ccccc6c5)cc4c32)cc1 (2.5 µM)
inactive: [1] 0 | [2] 0 | [3] 0 | [4] 0 | [5] 0 | [6] 0 | [7] 0 | [8] 0 | [9] 0 | [10] 0 | [11] 0 | [12] 0 | [13] 0 | [14] 0 | [15] 0 | [16] 0 | [17] 0 | [18] 0 | [19] 0 | [20] 0

CCCCNc1ncc(-c2ccc(CN3CCOCC3)cn2)c(NC2CCC(O)CC2)n1 (stereo not given) (10 µM)
inactive: [1] 0 | [2] 0 | [3] 0 | [4] 0 | [5] 0 | [6] 0 | [7] 0 | [8] 0 | [9] 0 | [10] 0 | [11] 0 | [12] 0 | [13] 0 | [14] 0 | [15] 0 | [16] 0 | [17] 0 | [18] 0 | [19] 0 | [20] 0

(more compounds)

Oc1ccc(-c2nc(-c3ccc(F)cc3)c(-c3ccncc3)[nH]2)cc1 (2.5 µM)
inactive: [1] 0 | [2] 0 | [3] 0 | [4] 0 | [5] 0 | [6] 0 | [7] 0 | [8] 0 | [9] 0 | [10] 0 | [11] 0 | [12] 0 | [13] 0 | [14] 0 | [15] 0 | [16] 0 | [17] 0 | [18] 0 | [19] 0 | [20] 0

O=C(O)CCNC(=O)c1ccc(/N=N/c2ccc(O)c(C(=O)O)c2)cc1 [Balsalazide] (10 µM)
inactive: [1] 0 | [2] 0 | [3] 0 | [4] 0 | [5] 0 | [6] 0 | [7] 0 | [8] 0 | [9] 0 | [10] 0 | [11] 0 | [12] 0 | [13] 0 | [14] 0 | [15] 0 | [16] 0 | [17] 0 | [18] 0 | [19] 0 | [20] 0

C[C@H](CN(C)C)Oc1nc(Nc2cc3cccc(Cl)c3cn2)cnc1C#N (10 µM)
inactive: [1] 0 | [2] 0 | [3] 0 | [4] 0 | [5] 0 | [6] 0 | [7] 0 | [8] 0 | [9] 0 | [10] 0 | [11] 0 | [12] 0 | [13] 0 | [14] 0 | [15] 0 | [16] 0 | [17] 0 | [18] 0 | [19] 0 | [20] 0

FC(F)(F)c1ccc(CNc2ccc(Cc3c[nH]c4ncc(Cl)cc34)cn2)cc1 (10 µM)
inactive: [1] 0 | [2] 0 | [3] 0 | [4] 0 | [5] 0 | [6] 0 | [7] 0 | [8] 0 | [9] 0 | [10] 0 | [11] 0 | [12] 0 | [13] 0 | [14] 0 | [15] 0 | [16] 0 | [17] 0 | [18] 0 | [19] 0 | [20] 0
